In PMC3634074:
No constants are given. Whether binding was seen depends on the method and setting. A result given as binding can be weak or reduced; the word gives no strength.

Sequences of proteins named here, by UniProt entry; tags and fusion partners are left off. A change or cut given only in a name is not applied to a line headed by its entry.
UniProt G4RK45: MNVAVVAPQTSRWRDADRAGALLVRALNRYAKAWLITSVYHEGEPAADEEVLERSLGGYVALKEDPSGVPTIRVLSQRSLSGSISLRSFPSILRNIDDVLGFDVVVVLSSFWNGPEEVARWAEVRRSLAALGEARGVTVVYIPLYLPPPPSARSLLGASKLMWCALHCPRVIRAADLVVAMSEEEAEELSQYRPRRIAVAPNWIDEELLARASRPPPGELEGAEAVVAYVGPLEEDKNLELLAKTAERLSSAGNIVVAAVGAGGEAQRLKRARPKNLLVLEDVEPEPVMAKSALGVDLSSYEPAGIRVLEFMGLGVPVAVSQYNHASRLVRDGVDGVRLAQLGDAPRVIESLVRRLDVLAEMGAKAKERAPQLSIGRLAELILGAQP

Target: Thermoproteus tenax putative glycosyltransferase (GT) (Thermoproteus tenax) (UniProt G4RK45)
Test: two-hybrid; Matchmaker system 3 (Clontech), yeast AH109 co-transformed with pGADT7::TTX_1305 and pGBKT7::TTX_1304; drops on SD plates with X-alpha-gal lacking leucine, tryptophan, histidine and adenine; three days at 30°C

binding: binds
B1: Thermoproteus tenax trehalose-6-phosphate synthase/phosphatase (TPSP) (enzyme, UniProt G4RK44 1-731)
chain: MRLIVVSNRLPVTISPSGEIRESVGGLATAMKSFLGAVNGGRELGLEEVVWVGWSGVPSERESNDLRERLRGMGLEPVPLSSEEVEGFYEGFSNSTLWPLFHGFSEYATYEEKHWRAYRGVNEKYAKAVVALARPGDLVWIHDYHLMLAPAIVREAAEVGVGFFLHIPFPPAELLQLLPSEWRREILEGLLGSDLVGFHTYEYSANFSRSVVRFLGYKVEMGAIAVGHRRVRVGVFPIGIDFDRFYNSSQDPSVVEEMAKLREMLGRAKVVFSIDRLDYTKGVLRRVAAWERFLREHPEWRGRAVFVLVVVPSRTGVPMYEEMKRQIDREVGRINGELGELNWVPIVYLYRFIPSPTLMALYNIADVALITPLRDGMNLVAKEFVASKRDCRGVLILSELAGASKELAEALVINPNDVGGTAEAIAEALSMSEDEQCRRIRAMQERLRMRDVVRWGTDFIYSLISAKSAREEVEKALRYMEELSVDKLKSDFAKAKRRLLLLDYDGTLVPHYPYPHMAVPDGDLLELLSRLAALPETAVYVVSGRGRDFLDGWLGRLPVGLVAEHGFFLKHPGGEWKSLGKVDPSWRQYAKGIMEDFASNVPGSFVEVKEAGIAWHYRNADETIAEKAVVELIDALSNALAGSGLSILRGKKVVEVRPAGYTKGTAAKMLLDELSPDFVFVAGDDETDEGMFEVAPQSAYTVKVGPGPTLAKFRVGDYRGLRSLLEQLRPP
